The results in this text go back to PMC12376620.

Amino acid sequences for entries named in this document (tags omitted). A change or cut given only in a name is not applied to a line headed by its entry.
UniProt Q5K4R0: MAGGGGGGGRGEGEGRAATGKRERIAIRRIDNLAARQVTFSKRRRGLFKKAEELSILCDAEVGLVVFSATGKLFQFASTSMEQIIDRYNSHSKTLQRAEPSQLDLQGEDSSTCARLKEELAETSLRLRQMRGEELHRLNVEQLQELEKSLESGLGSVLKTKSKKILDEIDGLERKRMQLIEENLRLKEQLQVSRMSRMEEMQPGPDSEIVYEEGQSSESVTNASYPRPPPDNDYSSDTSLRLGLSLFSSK

For at least one entry, the source does not settle the construct or the ends of the probe. For some of these results: Weaker means in comparison with the reference protein, sequence or condition of that experiment. At least one verdict rests on a figure or table, not on a statement of the authors.

For the first data set, the target named is MBP-OsMADS47 (UniProt Q5K4R0). As to the kind of experiment: EMSA. The conditions noted are these: EMSA buffer not stated (performed as described previously, ref 61); unlabeled competitors at 10x, 100x, 1000x; recombinant protein; protein details: MBP (N-terminal, pMAL); label: biotin 3'-end. (In general: In EMSA bound probe runs differently from free probe, usually more slowly.)
Take “CCACCGTCCCCCCTTCCCCCTCCAGAGGCAGGGAGGGAGGGAGGGGAG (double strand) [GS3-P4 mutated probe]”: the binding result is listed as “binds more weakly”.

Take “CTACTTTCCTTCCTCCACTAGAACCCTTCTCACTCTACATAATC (double strand) [GW8-P3 mutated probe]”: the binding result was “binds more weakly”.

For the sequence “CTCTCCCTTCCATCATTACTTGCAATCCCCTCCCCTCCATCTCCATGTG (double strand) [GS3-P2 mutated probe]”, the binding result is listed as “binds more weakly”.

Regarding “CTTATAGTCCAACAATTTGAGAGTCAAAAATTAAATGAAAAATAGAAATTC (double strand) [GW8-P1 mutated probe]”, the binding result is recorded as “binds more weakly”.

On to “CTTCCCTACACGACCCTCTTCATGACCAGCTCATTCCGAACCCCCTTCC (double strand) [GS3-P5 mutated probe]”, for which the binding result was “binds more weakly”.

For the sequence “GCCACCCTCCCTACGACGTAGCGGAGAGGTCCGCGCCGCCGCCGCTGC (double strand) [GS3-P3 mutated probe]”, the binding result is reported as “binds more weakly”.

Consider “GCTGCACCACCCGCGATGCCGTCGGAGGTGGAGCGTCGCCGCCCTCC (double strand) [GS3-P1 mutated probe]”, for which the binding result is on record as “binds more weakly”.

In the case of “GTAACTGACTACCCCCAGTTCCTCCTTGGTATTGTTGCTCCAAG (double strand) [GW8-P2 mutated probe]”, the binding result is “binds more weakly”.

A further data set addresses phosphorylated MBP-OsMADS47 (UniProt Q5K4R0). As to the kind of experiment: EMSA. To be noted: phosphorylated by OsMPK6, stronger than unphosphorylated; EMSA buffer not stated (performed as described previously, ref 61); unlabeled competitors at 10x, 100x, 1000x; recombinant protein; protein details: MBP (N-terminal, pMAL); label: biotin 3'-end.
For “CCACCGTCCCCCCTTCCCCCTCCAACCAGATCTGGGAGGAAGGGAGGGAGGGAGGGGAG (double strand) [GS3-P4]”, the binding result is given as “binds”.

On to “CTACTTTCCTTATTCCACTAGAAATCATATATACCTTTCTCACTCTACATAATC (double strand) [GW8-P3]”, for which the binding result was “binds”.

As to “CTCTCCCTTCCATCATTACTTGCCCAAAAACGGCAATCCCCTCCCCTCCATCTCCATGTG (double strand) [GS3-P2]”, the binding result was “binds”.

For the sequence “CTTATAGTCCAACAATTTGAGAGCAATTAATGGTCAAAAATTAAATGAAAAATAGAAATTC (double strand) [GW8-P1]”, the binding result is given as “binds”.

For “CTTTTCTAAACGATATTCTTCATGAACCAAAGGAGGGAAGCTCATTCCGAAAATTTTTCC (double strand) [GS3-P5]”, the binding result is listed as “binds”.

“GCCACCCTCCCTACGACGTAGCCAGATATGGGTGGAGAGGTAAGCGCCGCCGCCGCTGC (double strand) [GS3-P3]”: the binding result is on record as “binds”.

Turning to “GCTGCACAACCCGCGATGCCGTCGGCCGGATTTGGGAGGTGGAGCGTCGCCGCCCTCC (double strand) [GS3-P1]”, the binding result is “binds”.

Regarding “GTAACTGACTACCCCCAGTTCCTGCCCTCTTGGGCCTTGGTATTGTTGCTCCAAG (double strand) [GW8-P2]”, the binding result is “binds”.
